Experimental data: PubChem BioAssay AID1259299 (Sanger Institute, 2017)
Screen: 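Essential genes and drug-synergistic partners among kinases and colorectal mutation genes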 (primary screen). Cells: human CAR1 colorectal cancer cells. Reagents: siRNA pool against human genes. Challenge: anchor drug BYL719 1 µM, cetuximab 5 µg/ml or trametinib 10 nM, or DMSO vehicle alone; exposure length not given. Read-out: 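Mean replicate viability versus non-targeting controls, turned into robust z-scores, plus drug synergy scores for BYL719, cetuximab and trametinib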. Reading the numbers: viability robust z-score, knock-down alone and viability, knock-down alone (DMSO): higher = more viable cells; synergy score with BYL719 and synergy score with cetuximab and synergy score with trametinib: higher = stronger synergy with drug (synthetic lethal). Hit rule: 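a gene is called essential if its knock-down-alone viability z-score drops under -3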. Calls: active = essential (knock-down alone); inactive = no change.
The deposit covers 794 reagents; this is a part drawn at random. 9 of all reagents (1.1%) were called active. 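Calls rest on knock-down alone; synergy scores play no part in calls, and no gene passed the synergy cut.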 Unmarked entries are inactive. No viability above 1 is reported: the scale is capped. Not given: the amount of reagent, the time to read-out.

| gene knocked down | viability robust z-score, knock-down alone | viability, knock-down alone (DMSO) (fraction of control) | synergy score with BYL719 | synergy score with cetuximab | synergy score with trametinib |
| --- | --- | --- | --- | --- | --- |
| DLG4 | -0.347 | 0.895 | -0.0456 | -0.147 | 0.0319 |
| DCLK3 | 0.789 | 1 | -0.127 | -0.00699 | -0.158 |
| GSK3A | -1.9 | 0.752 | -0.182 | -0.195 | -0.0274 |
| RPS6KA5 | 0.595 | 0.982 | 0.0111 | 0.0953 | -0.0214 |
| MARK4 | -0.616 | 0.87 | -0.131 | -0.193 | -0.151 |
| NADK | 0.174 | 0.943 | -0.0939 | -0.0453 | -0.092 |
| SPHK2 | 0.605 | 0.983 | -0.109 | -0.0444 | -0.165 |
| ABL1 | 0.789 | 1 | -0.155 | -0.067 | -0.221 |
| HIPK4 | 0.789 | 1 | -0.206 | -0.073 | -0.127 |
| CREBBP | 0.472 | 0.971 | -0.102 | -0.0371 | -0.0161 |
| TLK2 | 0.574 | 0.98 | -0.211 | -0.0915 | -0.156 |
| CHD4 | -0.441 | 0.886 | -0.111 | -0.0343 | 0.099 |
| TCF7L2 | 0.789 | 1 | -0.109 | -0.0253 | -0.198 |
| IP6K3 | 0.269 | 0.952 | 0.0567 | 0.0326 | 0.0739 |
| TSKS | 0.789 | 1 | -0.206 | -0.073 | -0.0586 |
| MAGI2 | -0.59 | 0.873 | -0.145 | -0.0276 | -0.00465 |

Laid out differently: results already given.
{"gene knocked down":"NADK","viability robust z-score, knock-down alone":0.174,"viability, knock-down alone (DMSO) (fraction of control)":0.943,"synergy score with BYL719":-0.0939,"synergy score with cetuximab":-0.0453,"synergy score with trametinib":-0.092}
{"gene knocked down":"SPHK2","viability robust z-score, knock-down alone":0.605,"viability, knock-down alone (DMSO) (fraction of control)":0.983,"synergy score with BYL719":-0.109,"synergy score with cetuximab":-0.0444,"synergy score with trametinib":-0.165}
{"gene knocked down":"ABL1","viability robust z-score, knock-down alone":0.789,"viability, knock-down alone (DMSO) (fraction of control)":1,"synergy score with BYL719":-0.155,"synergy score with cetuximab":-0.067,"synergy score with trametinib":-0.221}
{"gene knocked down":"HIPK4","viability robust z-score, knock-down alone":0.789,"viability, knock-down alone (DMSO) (fraction of control)":1,"synergy score with BYL719":-0.206,"synergy score with cetuximab":-0.073,"synergy score with trametinib":-0.127}
{"gene knocked down":"CREBBP","viability robust z-score, knock-down alone":0.472,"viability, knock-down alone (DMSO) (fraction of control)":0.971,"synergy score with BYL719":-0.102,"synergy score with cetuximab":-0.0371,"synergy score with trametinib":-0.0161}

More results follow:
| gene knocked down | viability robust z-score, knock-down alone | viability, knock-down alone (DMSO) (fraction of control) | synergy score with BYL719 | synergy score with cetuximab | synergy score with trametinib |
| --- | --- | --- | --- | --- | --- |
| MYLK | 0.789 | 1 | -0.068 | 0.0705 | 0.0205 |
| ARAF | 0.789 | 1 | -0.206 | -0.073 | -0.135 |
| PAK4 | 0.789 | 1 | -0.0548 | 0.00211 | -0.123 |
| RET | 0.789 | 1 | -0.0148 | -0.0273 | -0.0846 |
| ITSN1 | -0.358 | 0.894 | -0.101 | -0.162 | -0.107 |
| UHMK1 | 0.789 | 1 | -0.0663 | -0.0108 | -0.0706 |
| PGK2 | -1.3 | 0.807 | -0.136 | -0.167 | -0.0354 |
| MAP3K3 | 0.174 | 0.943 | -0.0405 | -0.082 | -0.00897 |
| MVK | 0.789 | 1 | -0.127 | -0.00995 | -0.0963 |
| FCSK | 0.789 | 1 | -0.0414 | -0.0225 | -0.126 |
| MARK1 | 0.789 | 1 | 0.0838 | -0.0321 | -0.0596 |
| LATS1 | 0.149 | 0.941 | -0.162 | -0.111 | -0.209 |
| AAK1 | 0.648 | 0.987 | -0.00352 | -0.05 | -0.0259 |
| PIK3CB | -0.731 | 0.86 | -0.0373 | -0.0309 | -0.0107 |
| OXSR1 | -1.49 | 0.79 | -0.361 | -0.216 | -0.234 |
| IRAK4 | -0.595 | 0.872 | -0.174 | -0.135 | -0.0466 |
| NUAK2 | -0.994 | 0.835 | -0.00583 | -0.0818 | -0.0755 |
| STYK1 | -0.475 | 0.883 | -0.189 | -0.0319 | -0.196 |
| AKT1 | 0.789 | 1 | -0.11 | 0.037 | -0.018 |
| CLSPN | 0.789 | 1 | 0.0392 | 0.0317 | 0.0804 |
| THNSL1 | 0.789 | 1 | -0.206 | -0.0345 | -0.142 |
| RTN4 | 0.789 | 1 | -0.128 | -0.073 | -0.0825 |
| ALPK2 | 0.789 | 1 | -0.148 | -0.042 | -0.199 |
| MAST3 | -0.75 | 0.858 | -0.144 | -0.147 | -0.0443 |
| NLK | -0.18 | 0.911 | -0.0207 | -0.00474 | 0.0403 |
| PAK3 | 0.203 | 0.946 | -0.116 | 0.0153 | -0.00722 |
| FLT4 | -0.167 | 0.912 | -0.107 | 0.0745 | -0.00694 |
| FGFRL1 | -0.11 | 0.917 | -0.218 | -0.073 | 0.00851 |
| CDKN2C | 0.789 | 1 | -0.113 | -0.073 | 0.0492 |
| EPHB1 | 0.579 | 0.981 | -0.0638 | -0.091 | -0.105 |
| MAPK14 | 0.628 | 0.985 | -0.0589 | -0.0868 | -0.0168 |
| COMMD3 | 0.413 | 0.965 | -0.0829 | -0.0367 | 0.0537 |
| CDK5 | -1.06 | 0.829 | -0.229 | -0.175 | -0.186 |
| CRKL | 0.222 | 0.948 | -0.104 | -0.0827 | -0.0218 |
